Measurements: patent US20230017266A1, “Cyclooxygenase-2 Inhibition for the Treatment of SAA-high Asthma” (THE USA, AS REPRESENTED BY THE SECRETARY, DEPT. OF HEALTH …, priority 2019, published 2023)
For at least one compound, name, drawing or mass did not settle the structure.

Experiments:
Format in all cases: cell-based, human
[1] = test system: CD14^+ monocytes; assay: HDL+SAA1-induced cytokine secretion by ex vivo CD14+ monocytes (ELISA); conditions: celecoxib 50 μM, 24 h
Procedure: Isolation of Peripheral Blood Monocytes. Peripheral blood monocytes were isolated using a two-step process. Peripheral blood was diluted with PBS at a 1:1 ratio, slowly overlaid onto 30 ml of Lymphoprep™ (catalog #07811, StemCell Technologies, Vancouver Canada) in a 50 ml conical tube, and centrifuged at 400×g for 25 min without braking. The peripheral blood mononuclear cell (PBMC) layer was carefully transferred to another 50 ml conical tube, washed with PBS, followed by two washes with FACS buffer (0.5 mM EDTA, 1% BSA, and 1% mouse serum in PBS). Monocytes subsets were identified and sorted by flow cytometry using the following antibodies: PE mouse anti-human CD45 clone HI30 (catalog #555483), BV421 mouse anti-human CD14 clone MφP9 (catalog #563743), and FITC mouse anti-human CD16 clone B73.1 (catalog #561308), and a FACS ARIA Fusion sorter equipped with 355, 407, 488, 532 and 640 nm LASER lines using FACS DIVA 8.0 software (all from BD Biosciences, San Jose, Calif.). The gating strategy identified a population of debris-free, single, live, ^SSCmoderate/high, CD45^+ cells from which CD14^+/CD16^− (classical), CD14^+/CD16^+ (intermediate), CD14^dim/CD16^+ (non-classical), and CD14^+ (classical and intermediate) cells were sorted and utilized for experiments, as indicated (Supplemental FIG. 4).
HDL+SAA1 Stimulation of Peripheral Blood Monocytes Subsets. […] As previously described, normal HDL was isolated from plasma obtained from healthy subjects by sequential KBr differential gradient ultracentrifugation at 330,000 g and extensive dialysis with 50 mM HEPES, 50 mM NaCL, 5 mM MgCl2 and 2 mM CaCl2, pH 7.0, at 4° C. Normal HDL was complexed with recombinant human serum amyloid A-1 at a 2:1 ratio by mixing and incubated at RT overnight to generate HDL+SAA1, which was filtered using a 100-kDa exclusion filter (Amicon Ultra Centrifuge Filters, Millipore, Darmstadt, Germany) to remove any uncomplexed SAA1. Normal HDL was also complexed with the amount of lipopolysaccharide (catalog # L4391, E. coli 0111:B4, y-irradiated, MilliporeSigma, St. Louis, Mo.) present in recombinant human SAA1. Additionally, classical CD14^+ monocytes were treated with the P2X7R antagonist, A438079, the IKK inhibitor, BAY-11-7082, the IKKβ (IKK-2) inhibitor, TPCA-1, or the selective COX-2 inhibitor, celexocib, all from MilliporeSigma(St. Louis, Mo.). […] The amount of IL-1β, IL-6, TNF-α and IL-10 secreted into cell culture supernatants was quantified using human DuoSet ELISA kits (R&D Systems) and data were acquired using a SpectraMax M2 spectrophotometer (Molecular Devices, San Jose, Calif.). […] Western blots images were captured using an iBright FL1000 Western Blot Imaging System (ThermoFisher Scientific, Waltham, Mass.) and quantified using NIH ImageJ software (imagej.nih.gov). […]

[2] = test system: CD14^+ monocytes; assay: PGE2 and TXB2 secreted by CD14+ monocytes cultured with HDL+SAA1; conditions: celecoxib 50 μM, 24 h
Excerpt: FIG. 4 illustrates that HDL enriched with serum amyloid A (HDL+SAA1) induces cytokine secretion from CD14+ monocytes via a P2X7R/NF-κB/COX-2-dependent pathway. a, Volcano plot showing differentially expressed mRNA transcripts from classical CD14+/CD16− monocytes from asthmatics (n=10) that were stimulated ex vivo with or without HDL enriched with recombinant human SAA1 (HDL+SAA1). Additional experiments utilized ex vivo cultures of CD14^+ monocytes isolated by flow cytometry from healthy subjects to characterize the HDL+SAA1-mediated P2X7R/NF-κB/COX-2-dependent pathway, except where indicated. b, PTGS2 mRNA levels were quantified by qRT-PCR in cells stimulated with normal HDL or HDL+SAA1 and presented as RQ (relative quantification). n=7 subjects, pairwise comparisons of all groups vs. media, repeated measures one-way ANOVA with Dunnett's multiple comparisons test. c, Western blot showing COX-1 and COX-2 protein in cells stimulated with normal HDL or HDL+SAA1. GAPDH is shown as a control for equivalency of protein loading. The Western blot shown is representative of 3 independent experiments using cells from different subjects. […]

[3] = test system: THP-1 monocytes; assay: Cytokine secretion by THP-1 monocytes stimulated with endogenous SAA-high HDL; conditions: celecoxib 10 nM, pre-treated 1 h, SAA-high HDL 4 μg of protein/ml 24 h
Procedure: HDL Isolation and Analysis. HDL was isolated from plasma by size-exclusion chromatography using two Superose 6 columns in series on an Akta FPLC system (GE Healthcare Life Sciences, Pittsburgh, Pa.), as previously described. FPLC fractions were assayed for cholesterol content (Cholesterol E, catalog #996021611, FUJIFILM Wako Diagnostics USA, Mountain View, Calif.) to identify HDL fractions, which were pooled and concentrated using a 10-kDa exclusion filter (Amicon Ultra Centrifuge Filters, Millipore, Darmstadt, Germany). The content of SAA in purified HDL was quantified using the human SAA ELISA kit, while APOA1 was quantified using the human APOA1 ELISA development kit (Mabtech, Nacka Strand, Sweden). THP-1 monocytes (American Type Culture Collection, Manassas, Va.) were treated with HDL from SAA-high asthmatics (n=16), as well as HDL from asthmatics with the lowest SAA levels (n=16), and the quantity of […], IL-6, TNF-α, and IL-10 secreted into culture medium over 24 h was assayed using Human DuoSet ELISA kits (R&D Systems, Minneapolis, Minn.) and data were acquired using a SpectraMax M2 spectrophotometer (Molecular Devices, San Jose, Calif.).
Stimulation of THP-1 monocytes with endogenous HDL from SAA-high asthmatics and suppression of cytokine secretion were further studied. HDL (4 μg of protein/ml) isolated from plasma from a SAA-high asthmatic (SAA-high HDL) and from a healthy non-asthmatic subject (Normal HDL) were used to stimulate THP-1 monocytes for 24 h. THP-1 monocytes were pre-treated with the FPR2 antagonist, WRW4 or water (40 μM) as the vehicle control, or A438079 or DMSO (10 μM) as the vehicle control, for 1 h prior to stimulation with normal or SAA-high HDL for 24 h. One-way ANOVA with Sidak's multiple comparisons test. ****P<0.0001.
HDL ([…] of protein/ml) isolated from plasma from a SAA-high asthmatic (SAA-high HDL) and from a healthy non-asthmatic subject (Normal HDL) were used to stimulate THP-1 monocytes for 24 h. […]

## Cc1ccc(-c2cc(C(F)(F)F)nn2-c2ccc(S(N)(=O)=O)cc2)cc1 [celecoxib, 4-[5-(4-methylphenyl)-3-(trifluoromethyl)-1H-pyrazol-1-yl] benzenesulfonamide]
[1]
  HDL+SAA1-mediated secretion of IL-6: significantly inhibited
  HDL+SAA1-mediated secretion of IL-10: significantly inhibited
  HDL+SAA1-mediated secretion of IL-13: significantly inhibited
  HDL+SAA1-mediated secretion of TNF-α: significantly inhibited
[2]
  HDL+SAA1-induced increase in prostaglandin E2: suppressed
  HDL+SAA1-induced increase in thromboxane B2: suppressed
[3]
  endogenous SAA-high HDL-induced increases in IL-1β secretion: inhibits
  endogenous SAA-high HDL-induced increases in IL-6 secretion: inhibits
  endogenous SAA-high HDL-induced increases in TNF-α secretion: inhibits
